Binding data for 1 substance are collected here from US20140179593A1 (published 2014).

Protein sequences, listed by entry. Tags and fused reporters are not part of them. Lines headed by an entry give the natural chain unless they say otherwise; changes in a name come on top.
UniProt P61081: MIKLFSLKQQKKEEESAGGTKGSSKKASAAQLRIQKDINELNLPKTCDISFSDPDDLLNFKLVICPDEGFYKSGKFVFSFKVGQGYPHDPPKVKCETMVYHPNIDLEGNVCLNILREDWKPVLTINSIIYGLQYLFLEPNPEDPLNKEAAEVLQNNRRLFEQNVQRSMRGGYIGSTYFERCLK
UniProt P29595: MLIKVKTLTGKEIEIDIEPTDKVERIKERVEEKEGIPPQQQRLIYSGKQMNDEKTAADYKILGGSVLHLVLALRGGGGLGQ

No constants are given. Whether binding was seen depends on the method and setting. In cells and extracts the contact can be indirect. Some entries that bind do so weakly or less than the wild type.

The target in the assay is Endogenous hUbc12 (Homo sapiens) (UniProt P61081). In words: co-immunoprecipitation from 293T cells, LC-MS/MS.

As to TAP-hNedd8 (from UniProt P29595 1-76), the binding result was “binds”.
